Compound in this assay: CCc1cnccc1C(=O)Nc1cc2c(cc1F)NC(=O)CC2
In words: melting temperature shift (DMSO Tm minus MBE1-treated Tm) in cellular thermal proteome profiling; higher = less thermal stabilization by MBE1 (negative = stabilized by MBE1). Conditions: A375.

By UniProt entry, the sequences of proteins in these tests, tags left out. Where a name states a change or a piece, a line headed by the entry shows the natural chain unless it says otherwise.
UniProt Q01433: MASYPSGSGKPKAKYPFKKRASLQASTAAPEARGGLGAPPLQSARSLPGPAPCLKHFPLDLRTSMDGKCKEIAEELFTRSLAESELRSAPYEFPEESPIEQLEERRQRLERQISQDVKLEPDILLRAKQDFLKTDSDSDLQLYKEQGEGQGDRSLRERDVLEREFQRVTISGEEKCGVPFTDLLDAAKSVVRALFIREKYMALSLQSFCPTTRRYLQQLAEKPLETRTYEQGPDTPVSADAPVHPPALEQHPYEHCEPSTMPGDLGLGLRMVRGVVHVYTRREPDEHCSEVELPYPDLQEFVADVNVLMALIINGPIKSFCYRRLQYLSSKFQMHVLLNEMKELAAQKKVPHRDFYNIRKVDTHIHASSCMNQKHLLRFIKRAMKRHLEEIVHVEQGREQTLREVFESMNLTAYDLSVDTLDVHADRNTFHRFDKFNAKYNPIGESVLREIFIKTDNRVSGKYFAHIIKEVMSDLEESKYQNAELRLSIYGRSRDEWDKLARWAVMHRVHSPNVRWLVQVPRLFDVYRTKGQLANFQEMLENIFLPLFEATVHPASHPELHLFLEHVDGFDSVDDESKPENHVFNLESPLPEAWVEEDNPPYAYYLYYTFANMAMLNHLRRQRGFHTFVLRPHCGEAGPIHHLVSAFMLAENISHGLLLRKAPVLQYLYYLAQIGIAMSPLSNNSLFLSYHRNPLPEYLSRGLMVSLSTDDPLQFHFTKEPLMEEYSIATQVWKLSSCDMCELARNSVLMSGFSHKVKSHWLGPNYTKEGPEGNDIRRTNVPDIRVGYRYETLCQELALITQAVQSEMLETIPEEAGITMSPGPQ
UniProt Q12851: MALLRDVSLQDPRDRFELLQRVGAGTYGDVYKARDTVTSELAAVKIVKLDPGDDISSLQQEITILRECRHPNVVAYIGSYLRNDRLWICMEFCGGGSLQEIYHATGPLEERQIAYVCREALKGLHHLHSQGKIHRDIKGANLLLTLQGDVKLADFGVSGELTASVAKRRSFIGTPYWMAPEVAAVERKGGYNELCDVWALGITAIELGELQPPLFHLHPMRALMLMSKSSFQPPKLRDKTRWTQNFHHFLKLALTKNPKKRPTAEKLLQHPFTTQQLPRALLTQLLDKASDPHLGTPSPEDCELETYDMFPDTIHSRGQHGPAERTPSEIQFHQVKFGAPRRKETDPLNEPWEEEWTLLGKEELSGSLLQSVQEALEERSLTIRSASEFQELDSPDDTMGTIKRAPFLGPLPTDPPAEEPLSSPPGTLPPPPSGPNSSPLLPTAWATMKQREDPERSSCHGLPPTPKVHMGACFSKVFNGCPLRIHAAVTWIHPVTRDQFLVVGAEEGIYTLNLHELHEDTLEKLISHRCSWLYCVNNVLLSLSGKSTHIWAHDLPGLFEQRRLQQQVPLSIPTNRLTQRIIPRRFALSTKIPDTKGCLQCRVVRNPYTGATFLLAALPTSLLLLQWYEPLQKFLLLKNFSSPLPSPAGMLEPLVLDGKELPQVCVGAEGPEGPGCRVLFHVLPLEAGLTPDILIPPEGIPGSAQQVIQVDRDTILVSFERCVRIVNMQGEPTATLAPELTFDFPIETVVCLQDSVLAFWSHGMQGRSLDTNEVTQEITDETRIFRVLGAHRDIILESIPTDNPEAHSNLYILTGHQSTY
UniProt Q12959, whole entry, looked up: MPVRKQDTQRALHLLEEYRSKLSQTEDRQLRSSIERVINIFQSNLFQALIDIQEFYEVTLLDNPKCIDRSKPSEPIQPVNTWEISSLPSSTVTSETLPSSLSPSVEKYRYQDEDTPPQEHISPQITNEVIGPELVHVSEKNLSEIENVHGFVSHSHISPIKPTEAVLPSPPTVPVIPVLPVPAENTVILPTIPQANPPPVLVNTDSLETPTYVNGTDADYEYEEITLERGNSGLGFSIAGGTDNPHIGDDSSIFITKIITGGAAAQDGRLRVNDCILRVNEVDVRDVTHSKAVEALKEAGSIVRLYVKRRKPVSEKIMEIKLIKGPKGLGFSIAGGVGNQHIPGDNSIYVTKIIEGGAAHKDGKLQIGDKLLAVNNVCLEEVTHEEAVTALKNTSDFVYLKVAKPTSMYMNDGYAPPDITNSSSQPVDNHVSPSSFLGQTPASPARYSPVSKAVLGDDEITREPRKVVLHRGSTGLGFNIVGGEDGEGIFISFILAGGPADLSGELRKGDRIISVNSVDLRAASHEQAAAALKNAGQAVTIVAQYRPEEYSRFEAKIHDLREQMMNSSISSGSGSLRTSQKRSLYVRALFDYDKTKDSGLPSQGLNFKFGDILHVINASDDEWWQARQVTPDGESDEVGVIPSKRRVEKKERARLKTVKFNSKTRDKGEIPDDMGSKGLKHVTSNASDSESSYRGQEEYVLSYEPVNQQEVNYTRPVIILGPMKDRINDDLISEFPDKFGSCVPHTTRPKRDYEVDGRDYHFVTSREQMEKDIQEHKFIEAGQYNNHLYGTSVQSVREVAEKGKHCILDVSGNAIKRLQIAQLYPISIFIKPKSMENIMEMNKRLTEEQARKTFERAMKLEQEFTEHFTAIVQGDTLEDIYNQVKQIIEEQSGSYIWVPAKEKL
UniProt Q12802: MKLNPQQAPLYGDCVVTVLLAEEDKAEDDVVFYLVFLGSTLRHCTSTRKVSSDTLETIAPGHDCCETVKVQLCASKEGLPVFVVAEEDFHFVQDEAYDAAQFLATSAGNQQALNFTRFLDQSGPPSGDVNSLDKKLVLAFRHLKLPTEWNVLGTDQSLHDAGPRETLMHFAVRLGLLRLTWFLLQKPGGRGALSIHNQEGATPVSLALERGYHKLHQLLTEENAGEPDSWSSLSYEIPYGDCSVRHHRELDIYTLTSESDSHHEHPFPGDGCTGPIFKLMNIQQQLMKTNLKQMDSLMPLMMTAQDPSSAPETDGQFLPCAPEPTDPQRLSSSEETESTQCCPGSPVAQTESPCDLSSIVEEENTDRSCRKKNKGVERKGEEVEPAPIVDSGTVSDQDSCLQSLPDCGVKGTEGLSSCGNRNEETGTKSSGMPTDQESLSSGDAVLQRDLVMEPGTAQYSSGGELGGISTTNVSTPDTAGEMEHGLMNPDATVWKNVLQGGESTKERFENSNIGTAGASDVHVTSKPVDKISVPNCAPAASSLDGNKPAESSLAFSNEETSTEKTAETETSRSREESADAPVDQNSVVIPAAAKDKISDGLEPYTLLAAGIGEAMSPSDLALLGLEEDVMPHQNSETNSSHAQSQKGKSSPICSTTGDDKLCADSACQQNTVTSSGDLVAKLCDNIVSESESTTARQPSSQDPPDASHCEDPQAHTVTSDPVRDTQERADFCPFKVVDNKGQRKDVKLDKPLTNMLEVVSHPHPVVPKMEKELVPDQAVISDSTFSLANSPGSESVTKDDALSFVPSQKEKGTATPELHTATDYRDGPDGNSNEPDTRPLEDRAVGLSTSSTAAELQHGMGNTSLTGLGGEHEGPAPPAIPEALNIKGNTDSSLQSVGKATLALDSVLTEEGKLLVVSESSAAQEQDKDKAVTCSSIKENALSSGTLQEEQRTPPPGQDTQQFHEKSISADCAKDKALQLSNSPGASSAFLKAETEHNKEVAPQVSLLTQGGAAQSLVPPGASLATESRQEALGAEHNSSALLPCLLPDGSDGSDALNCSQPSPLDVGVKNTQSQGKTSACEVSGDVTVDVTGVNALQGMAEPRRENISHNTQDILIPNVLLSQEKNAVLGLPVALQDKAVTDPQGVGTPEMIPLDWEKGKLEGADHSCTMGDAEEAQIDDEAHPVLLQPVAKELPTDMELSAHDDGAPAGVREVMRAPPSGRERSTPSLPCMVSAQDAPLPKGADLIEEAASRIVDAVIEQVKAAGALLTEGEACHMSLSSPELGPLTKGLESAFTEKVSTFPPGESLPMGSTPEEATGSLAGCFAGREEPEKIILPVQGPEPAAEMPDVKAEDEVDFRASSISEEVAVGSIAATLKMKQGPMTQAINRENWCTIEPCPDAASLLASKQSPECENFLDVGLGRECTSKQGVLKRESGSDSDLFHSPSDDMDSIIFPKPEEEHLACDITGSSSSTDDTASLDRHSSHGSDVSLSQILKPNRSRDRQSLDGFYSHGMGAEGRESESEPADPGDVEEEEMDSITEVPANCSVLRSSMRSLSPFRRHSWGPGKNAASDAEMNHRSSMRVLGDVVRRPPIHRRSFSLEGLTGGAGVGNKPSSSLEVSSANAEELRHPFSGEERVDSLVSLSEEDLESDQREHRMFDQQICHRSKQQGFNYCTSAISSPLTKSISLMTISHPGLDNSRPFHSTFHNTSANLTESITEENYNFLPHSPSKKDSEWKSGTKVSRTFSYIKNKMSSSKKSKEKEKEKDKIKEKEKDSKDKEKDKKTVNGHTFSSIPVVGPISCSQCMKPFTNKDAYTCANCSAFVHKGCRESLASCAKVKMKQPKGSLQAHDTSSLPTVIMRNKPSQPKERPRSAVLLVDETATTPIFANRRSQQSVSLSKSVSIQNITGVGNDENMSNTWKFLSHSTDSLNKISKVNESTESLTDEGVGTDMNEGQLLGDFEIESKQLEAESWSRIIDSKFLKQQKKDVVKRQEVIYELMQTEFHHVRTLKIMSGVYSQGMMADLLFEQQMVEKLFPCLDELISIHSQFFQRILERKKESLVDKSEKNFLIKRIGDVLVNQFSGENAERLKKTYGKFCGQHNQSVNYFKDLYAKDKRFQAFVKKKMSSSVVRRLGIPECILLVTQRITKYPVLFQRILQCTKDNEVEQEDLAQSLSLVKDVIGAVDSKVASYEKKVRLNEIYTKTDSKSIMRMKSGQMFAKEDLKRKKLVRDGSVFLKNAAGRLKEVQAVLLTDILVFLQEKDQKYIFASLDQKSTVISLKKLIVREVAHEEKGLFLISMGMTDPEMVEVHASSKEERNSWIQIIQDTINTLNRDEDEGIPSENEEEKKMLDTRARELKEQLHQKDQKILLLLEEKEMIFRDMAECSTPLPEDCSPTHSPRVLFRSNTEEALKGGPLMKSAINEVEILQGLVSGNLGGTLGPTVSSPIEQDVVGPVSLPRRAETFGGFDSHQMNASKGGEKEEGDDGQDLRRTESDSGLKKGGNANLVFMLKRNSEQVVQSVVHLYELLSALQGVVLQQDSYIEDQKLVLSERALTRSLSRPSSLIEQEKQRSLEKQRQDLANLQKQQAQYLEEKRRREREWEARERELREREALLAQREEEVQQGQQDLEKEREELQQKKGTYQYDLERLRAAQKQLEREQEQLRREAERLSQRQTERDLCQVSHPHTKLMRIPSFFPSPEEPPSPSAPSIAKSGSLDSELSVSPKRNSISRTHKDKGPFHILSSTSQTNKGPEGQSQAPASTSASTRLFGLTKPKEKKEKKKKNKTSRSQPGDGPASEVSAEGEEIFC
UniProt Q12974: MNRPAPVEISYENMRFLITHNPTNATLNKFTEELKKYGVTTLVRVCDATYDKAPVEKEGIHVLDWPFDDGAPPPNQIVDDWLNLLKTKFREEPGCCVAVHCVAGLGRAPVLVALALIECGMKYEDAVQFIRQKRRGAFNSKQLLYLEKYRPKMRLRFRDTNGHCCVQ
UniProt P78347: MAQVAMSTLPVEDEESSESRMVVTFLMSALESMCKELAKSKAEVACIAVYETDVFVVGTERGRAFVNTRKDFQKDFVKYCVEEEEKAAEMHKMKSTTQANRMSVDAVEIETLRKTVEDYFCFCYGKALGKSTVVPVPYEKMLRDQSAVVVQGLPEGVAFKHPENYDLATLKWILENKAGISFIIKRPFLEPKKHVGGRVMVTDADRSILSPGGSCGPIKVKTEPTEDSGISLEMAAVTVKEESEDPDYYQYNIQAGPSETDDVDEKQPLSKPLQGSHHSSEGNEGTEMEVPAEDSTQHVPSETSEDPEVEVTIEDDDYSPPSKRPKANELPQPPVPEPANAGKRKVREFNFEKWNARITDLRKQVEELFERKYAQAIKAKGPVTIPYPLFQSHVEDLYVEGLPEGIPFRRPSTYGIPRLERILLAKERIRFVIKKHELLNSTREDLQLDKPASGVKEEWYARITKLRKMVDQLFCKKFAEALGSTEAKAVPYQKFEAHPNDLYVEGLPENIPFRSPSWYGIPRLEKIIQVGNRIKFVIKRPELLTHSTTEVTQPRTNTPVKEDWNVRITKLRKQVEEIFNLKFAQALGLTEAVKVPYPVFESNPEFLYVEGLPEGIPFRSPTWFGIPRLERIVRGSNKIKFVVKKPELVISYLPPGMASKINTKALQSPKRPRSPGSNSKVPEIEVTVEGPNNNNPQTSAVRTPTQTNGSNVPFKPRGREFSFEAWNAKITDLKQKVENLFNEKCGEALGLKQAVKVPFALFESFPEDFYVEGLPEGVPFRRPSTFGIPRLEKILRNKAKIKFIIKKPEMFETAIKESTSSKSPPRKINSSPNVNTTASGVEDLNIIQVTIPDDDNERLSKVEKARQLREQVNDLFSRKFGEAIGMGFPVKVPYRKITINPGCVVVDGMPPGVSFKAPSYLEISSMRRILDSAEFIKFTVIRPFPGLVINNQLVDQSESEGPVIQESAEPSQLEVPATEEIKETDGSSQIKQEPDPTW

Some of the results follow. Single values of this set are uncertain.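 Many melting curves are irregular; where none melted, Tm was taken as 64 °C.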

For UniProt Q03188, the melting temperature shift (MBE1 concentration: 100 nM) is -0.0604 °C and the melting temperature shift (MBE1 concentration: 1 uM) is 0.664 °C.
The corresponding values for PURA (UniProt Q00577) are -0.843 °C and -2.67 °C.
Consider LRP1 (UniProt Q07954), for which the melting temperature shift is -0.989 °C (MBE1 concentration: 100 nM) and -0.0794 °C (MBE1 concentration: 1 uM).
The corresponding values for TFAM (UniProt Q00059) are -2.64 °C and -2.01 °C.
With FAAP100 (UniProt Q0VG06), the melting temperature shift reads like this: (MBE1 concentration: 100 nM) 1.06 °C; (MBE1 concentration: 1 uM) 0.318 °C.
As to PLOD1 (UniProt Q02809), the melting temperature shift was -0.919 °C (MBE1 concentration: 100 nM) and 0.168 °C (MBE1 concentration: 1 uM).
Take ADAM17 (UniProt P78536): the melting temperature shift was -0.758 °C (MBE1 concentration: 100 nM) and -0.456 °C (MBE1 concentration: 1 uM).
For the target RPL24 (UniProt P83731), the melting temperature shift is -1.52 °C (MBE1 concentration: 100 nM) and 0.611 °C (MBE1 concentration: 1 uM).
For the target GTF3C1 (UniProt Q12789), the melting temperature shift (MBE1 concentration: 100 nM) was -0.218 °C and the melting temperature shift (MBE1 concentration: 1 uM) is -0.532 °C.
For COG7 (UniProt P83436), the melting temperature shift by setting is: (MBE1 concentration: 100 nM) -1.45 °C; (MBE1 concentration: 1 uM) -1.06 °C.
For POLE (UniProt Q07864) the same measures were -0.314 °C and -0.34 °C.
With RELA (UniProt Q04206), the melting temperature shift is 0.592 °C (MBE1 concentration: 100 nM) and -0.147 °C (MBE1 concentration: 1 uM).
CDK5 (UniProt Q00535): the melting temperature shift reads like this: (MBE1 concentration: 100 nM) 0.0122 °C; (MBE1 concentration: 1 uM) -0.55 °C.
Take BLOC1S1 (UniProt P78537): the melting temperature shift was -1.79 °C (MBE1 concentration: 100 nM) and 0.256 °C (MBE1 concentration: 1 uM).
As for SPAG1 (UniProt Q07617), the melting temperature shift is 1.31 °C (MBE1 concentration: 100 nM) and -0.342 °C (MBE1 concentration: 1 uM).
Regarding GLO1 (UniProt Q04760), the melting temperature shift was -1.04 °C (MBE1 concentration: 100 nM) and -1.62 °C (MBE1 concentration: 1 uM).
Consider DHODH (UniProt Q02127), for which the melting temperature shift is, setting by setting: (MBE1 concentration: 100 nM) -1.72 °C; (MBE1 concentration: 1 uM) -0.919 °C.
The corresponding values for UniProt P78324 are -2.92 °C and -0.307 °C.
For ATP11A (UniProt P98196) the same measures were -1.02 °C and 0.214 °C.
Regarding PPP1R8 (UniProt Q12972), the melting temperature shift (MBE1 concentration: 100 nM) was found to be 0.965 °C and the melting temperature shift (MBE1 concentration: 1 uM) amounted to 0.403 °C.
The corresponding values for PFKP (UniProt Q01813) are -1.09 °C and -1.09 °C.
Take STX4 (UniProt Q12846): the melting temperature shift turned out to be 0.305 °C (MBE1 concentration: 100 nM) and 0.745 °C (MBE1 concentration: 1 uM).
As for ILF2 (UniProt Q12905), the melting temperature shift (MBE1 concentration: 100 nM) was -1.5 °C and the melting temperature shift (MBE1 concentration: 1 uM) amounted to 1.34 °C.
CKAP4 (UniProt Q07065): the melting temperature shift is, setting by setting: (MBE1 concentration: 100 nM) -1.16 °C; (MBE1 concentration: 1 uM) 0.189 °C.
Consider AMPD2 (UniProt Q01433), for which the melting temperature shift was -0.873 °C (MBE1 concentration: 100 nM) and -0.165 °C (MBE1 concentration: 1 uM).
For MAP4K2 (UniProt Q12851), the melting temperature shift by setting is: (MBE1 concentration: 100 nM) -0.0977 °C; (MBE1 concentration: 1 uM) -1.7 °C.
With SET (UniProt Q01105), the melting temperature shift was -1.11 °C (MBE1 concentration: 100 nM) and -0.739 °C (MBE1 concentration: 1 uM).
For DAB2 (UniProt P98082) the same measures were 0.0847 °C and -0.42 °C.
The corresponding values for FKBP4 (UniProt Q02790) are 0.275 °C and -0.0611 °C.
As for RBPJ (UniProt Q06330), the melting temperature shift was -1.06 °C (MBE1 concentration: 100 nM) and -0.0672 °C (MBE1 concentration: 1 uM).
Turning to ALDH6A1 (UniProt Q02252), the melting temperature shift is, setting by setting: (MBE1 concentration: 100 nM) -0.336 °C; (MBE1 concentration: 1 uM) -1.29 °C.
Take MRPS21 (UniProt P82921): the melting temperature shift is 0.611 °C (MBE1 concentration: 100 nM) and 1.28 °C (MBE1 concentration: 1 uM).
For XIAP (UniProt P98170) the same measures were -0.762 °C and -0.969 °C.
As for DLG1 (UniProt Q12959), the melting temperature shift was -0.856 °C (MBE1 concentration: 100 nM) and -0.305 °C (MBE1 concentration: 1 uM).
On to CAP1 (UniProt Q01518), for which the melting temperature shift (MBE1 concentration: 100 nM) is -0.302 °C and the melting temperature shift (MBE1 concentration: 1 uM) is -0.248 °C.
For BPTF (UniProt Q12830) the same measures were -0.711 °C and -0.282 °C.
The corresponding values for AIMP1 (UniProt Q12904) are 0.0941 °C and 0.282 °C.
For the target AKAP13 (UniProt Q12802), the melting temperature shift by setting is: (MBE1 concentration: 100 nM) 1.11 °C; (MBE1 concentration: 1 uM) 0.415 °C.
Turning to FMR1 (UniProt Q06787), the melting temperature shift (MBE1 concentration: 100 nM) was determined as 0.672 °C and the melting temperature shift (MBE1 concentration: 1 uM) is -0.238 °C.
PTP4A2 (UniProt Q12974): the melting temperature shift was -2.06 °C (MBE1 concentration: 100 nM) and 0.503 °C (MBE1 concentration: 1 uM).
Turning to UniProt P98198, the melting temperature shift by setting is: (MBE1 concentration: 100 nM) 1.34 °C; (MBE1 concentration: 1 uM) 0.783 °C.
With UniProt Q03113, the melting temperature shift reads like this: (MBE1 concentration: 100 nM) 1.22 °C; (MBE1 concentration: 1 uM) -1.01 °C.
For KIAA0196 (UniProt Q12768), the melting temperature shift by setting is: (MBE1 concentration: 100 nM) 0.287 °C; (MBE1 concentration: 1 uM) 0 °C.
The corresponding values for RAE1 (UniProt P78406) are 0.157 °C and -0.0855 °C.
For the target GTF2I (UniProt P78347), the melting temperature shift is, setting by setting: (MBE1 concentration: 100 nM) 0.115 °C; (MBE1 concentration: 1 uM) -0.179 °C.
For the target SF3A3 (UniProt Q12874), the melting temperature shift was -0.315 °C (MBE1 concentration: 100 nM) and -0.367 °C (MBE1 concentration: 1 uM).
Turning to EXOSC9 (UniProt Q06265), the melting temperature shift is 0.348 °C (MBE1 concentration: 100 nM) and -0.418 °C (MBE1 concentration: 1 uM).
On to DPYD (UniProt Q12882), for which the melting temperature shift reads like this: (MBE1 concentration: 100 nM) -0.469 °C; (MBE1 concentration: 1 uM) 0.839 °C.
Turning to ABR (UniProt Q12979), the melting temperature shift reads like this: (MBE1 concentration: 100 nM) -0.822 °C; (MBE1 concentration: 1 uM) -0.824 °C.
For STRN3 (UniProt Q13033), the melting temperature shift is, setting by setting: (MBE1 concentration: 100 nM) -0.316 °C; (MBE1 concentration: 1 uM) 0.318 °C.

Values taken from the supplement of paper PMC12595434, “Development of retinoid nuclear receptor pathway antagonists through targeting aldehyde dehydrogenase 1A3” (iScience, 2025).
